Data: patent US7998954B2, “Pyrimidodiazepinone derivative” (Kyowa Hakko Kirin Co., Ltd., priority 2007, dated 2011)
Some of these results come from one statement about several compounds together. For at least one compound, name, drawing or mass did not settle the structure.

Test system: α2δ protein
Test: α2δ protein binding experiment ([3H]-gabapentin binding inhibition, rat cerebral cortex membrane fraction)
Conditions: 0.1 μmol/L test compound, 20 nmol/L [3H]-Gabapentin

## CCNc1ncc2c(n1)N1CCC[C@H]1CN(Cc1ccc(NC(=O)c3cccnc3)cc1)C2=O [Compound 7, (S)—N-[4-(9-Ethylamino-6-oxo-2,3,3a,4-tetrahydro-1H,6H-5,8,10,10b-tetraazabenzo[e]azulen-5-ylmethyl)phenyl]nicotinamide]
  inhibitory activity ([3H]-Gabapentin binding inhibition): ≥ 50%

## CCNc1ncc2c(n1)N1CCC[C@H]1CN(Cc1ccc(C#N)nc1)C2=O [Compound 8, (S)-5-[(2-Cyanopyridin-5-yl)methyl]-9-ethylamino-1,2,3,3a,4,5-hexahydro-5,8,10,10b-tetraazabenzo[e]azulen-6-one]
  inhibitory activity ([3H]-Gabapentin binding inhibition): ≥ 50%

## CCNc1ncc2c(n1)N1CCC[C@H]1CN(Cc1ccc(C#N)cc1Cl)C2=O [Compound 9, (S)-5-(2-Chloro-4-cyanobenzyl)-9-ethylamino-1,2,3,3a,4,5-hexahydro-5,8,10,10b-tetraazabenzo[e]azulen-6-one]
  inhibitory activity ([3H]-Gabapentin binding inhibition): ≥ 50%

## CCNc1ncc2c(n1)N1CCC[C@H]1CN(Cc1ccc(-c3ccncc3)cc1F)C2=O [Compound 11, (S)-9-Ethylamino-5-[2-fluoro-4-(pyridin-4-yl)benzyl]-1,2,3,3a,4,5-hexahydro-5,8,10,10b-tetraazabenzo[e]azulen-6-one]
  inhibitory activity ([3H]-Gabapentin binding inhibition): ≥ 50%

## CCNc1ncc2c(n1)N1CCC[C@H]1CN(c1cccc(OC)c1)C2=O [Compound 12, (S)-9-Ethylamino-5-(3-methoxyphenyl)-1,2,3,3a,4,5-hexahydro-5,8,10,10b-tetraazabenzo[e]azulen-6-one]
  inhibitory activity ([3H]-Gabapentin binding inhibition): ≥ 50%

## CCNc1ncc2c(n1)N1CCC[C@H]1CN(c1cccc(-c3ccncc3)c1)C2=O [Compound 14, (S)-9-Ethylamino-5-[3-(pyridin-4-yl)phenyl]-1,2,3,3a,4,5-hexahydro-5,8,10,10b-tetraazabenzo[e]azulen-6-one]
  inhibitory activity ([3H]-Gabapentin binding inhibition): ≥ 50%

## CCNc1ncc2c(n1)N1CCC[C@H]1CN(c1cccc(-c3ncco3)c1)C2=O [Compound 15, (S)-9-Ethylamino-5-[3-(1,3-oxazol-2-yl)phenyl]-1,2,3,3a,4,5-hexahydro-5,8,10,10b-tetraazabenzo[e]azulen-6-one]
  inhibitory activity ([3H]-Gabapentin binding inhibition): ≥ 50%

## CCNc1ncc2c(n1)N1CCCC1CN(c1cccc(-c3ccnc(Cl)c3)c1)C2=O (stereo not drawn) [Compound 16, 5-[3-(2-Chloropyridin-4-yl)phenyl]-9-ethylamino-1,2,3,3a,4,5-hexahydro-5,8,10,10b-tetraazabenzo[e]azulen-6-one]
  inhibitory activity ([3H]-Gabapentin binding inhibition): ≥ 50%

## CCNc1ncc2c(n1)N1CCCC1CN(c1cccc(-c3ccnc(C#N)c3)c1)C2=O (stereo not drawn) [Compound 17, 5-[3-(2-Cyanopyridin-4-yl)phenyl]-9-ethylamino-1,2,3,3a,4,5-hexahydro-5,8,10,10b-tetraazabenzo[e]azulen-6-one]
  inhibitory activity ([3H]-Gabapentin binding inhibition): ≥ 50%

## CCNc1ncc2c(n1)N1CCCC1CN(c1cccc(C(=O)OCC)c1)C2=O (stereo not drawn) [Compound 18, Ethyl 3-(9-Ethylamino-6-oxo-2,3,3a,4-tetrahydro-1H,6H-5,8,10,10b-tetraazabenzo[e]azulen-5-yl)benzoate]
  inhibitory activity ([3H]-Gabapentin binding inhibition): ≥ 50%

## CCNc1ncc2c(n1)N1CCCC1CN(c1cccc(-c3nnc(C)o3)c1)C2=O (stereo not drawn) [Compound 20, 9-Ethylamino-5-[3-(5-methyl-[1,3,4]oxadiazol-2-yl)phenyl]-1,2,3,3a,4,5-hexahydro-5,8,10,10b-tetraazabenzo[e]azulen-6-one]
  inhibitory activity ([3H]-Gabapentin binding inhibition): ≥ 50%

## CCNc1ncc2c(n1)N1CCC[C@H]1CN(CC1CCN(c3ccncc3)CC1)C2=O [Compound 25, (S)-9-Ethylamino-5-[1-(pyridin-4-yl)piperidin-4-yl]methyl-1,2,3,3a,4,5-hexahydro-5,8,10,10b-tetraazabenzo[e]azulen-6-one]
  inhibitory activity ([3H]-Gabapentin binding inhibition): ≥ 50%

## CCNc1ncc2c(n1)N1CCC[C@H]1CN(CC1CCN(c3ccccn3)CC1)C2=O [Compound 26, (S)-9-Ethylamino-5-[1-(pyridin-2-yl)piperidin-4-yl]methyl-1,2,3,3a,4,5-hexahydro-5,8,10,10b-tetraazabenzo[e]azulen-6-one]
  inhibitory activity ([3H]-Gabapentin binding inhibition): ≥ 50%

## CCNc1ncc2c(n1)N1CCC[C@H]1CN(CC1CCN(c3ccnc(Cl)c3)CC1)C2=O [Compound 27, (S)-9-Ethylamino-5-[1-(2-chloropyridin-4-yl)piperidin-4-yl]methyl-1,2,3,3a,4,5-hexahydro-5,8,10,10b-tetraazabenzo[e]azulen-6-one]
  inhibitory activity ([3H]-Gabapentin binding inhibition): ≥ 50%

## CCNc1ncc2c(n1)N1CCC[C@H]1CN(CC1CCN(c3ccc(C(N)=O)cn3)CC1)C2=O [Compound 28, (S)-9-Ethylamino-5-[1-(5-aminocarbonylpyridin-2-yl)piperidin-4-yl]methyl-1,2,3,3a,4,5-hexahydro-5,8,10,10b-tetraazabenzo[e]azulen-6-one]
  inhibitory activity ([3H]-Gabapentin binding inhibition): ≥ 50%

## CCNc1ncc2c(n1)N1CCC[C@H]1CN(CC1CCN(c3cc(C#N)ccn3)CC1)C2=O [Compound 29, (S)-9-Ethylamino-5-[1-(4-cyanopyridin-2-yl)piperidin-4-yl]methyl-1,2,3,3a,4,5-hexahydro-5,8,10,10b-tetraazabenzo[e]azulen-6-one]
  inhibitory activity ([3H]-Gabapentin binding inhibition): ≥ 50%

## CCNc1ncc2c(n1)N1CCC[C@H]1CN(CC1CCN(c3ccnc(C#N)c3)CC1)C2=O [Compound 30, (S)-9-Ethylamino-5-[1-(2-cyanopyridin-4-yl)piperidin-4-yl]methyl-1,2,3,3a,4,5-hexahydro-5,8,10,10b-tetraazabenzo[e]azulen-6-one]
  inhibitory activity ([3H]-Gabapentin binding inhibition): ≥ 50%

## CCNc1ncc2c(n1)N1CCC[C@H]1CN(CC1CCN(c3nccs3)CC1)C2=O [Compound 31, (S)-9-Ethylamino-5-[1-(thiazolyl-2-yl)piperidin-4-yl]methyl-1,2,3,3a,4,5-hexahydro-5,8,10,10b-tetraazabenzo[e]azulen-6-one]
  inhibitory activity ([3H]-Gabapentin binding inhibition): ≥ 50%

## CCNc1ncc2c(n1)N1CCC[C@H]1CN(CC1CCN(c3ccccc3)CC1)C2=O [Compound 33, (S)-9-Ethylamino-5-(1-phenylpiperidin-4-yl)methyl-1,2,3,3a,4,5-hexahydro-5,8,10,10b-tetraazabenzo[e]azulen-6-one]
  inhibitory activity ([3H]-Gabapentin binding inhibition): ≥ 50%

## CCNc1ncc2c(n1)N1CCC[C@H]1CN(CC1CCN(c3cccnc3)CC1)C2=O [Compound 34, (S)-9-Ethylamino-5-[1-(pyridin-3-yl)piperidin-4-yl]methyl-1,2,3,3a,4,5-hexahydro-5,8,10,10b-tetraazabenzo[e]azulen-6-one]
  inhibitory activity ([3H]-Gabapentin binding inhibition): ≥ 50%

## CCNc1ncc2c(n1)N1CCC[C@H]1CN(c1cncc(N3CCN(C)CC3)c1)C2=O [Compound 42, (S)-9-Ethylamino-5-[5-(4-methylpiperazine-1-yl)pyridin-3-yl]-1,2,3,3a,4,5-hexahydro-5,8,10,10b-tetraazabenzo[e]azulen-6-one]
  inhibitory activity ([3H]-Gabapentin binding inhibition): ≥ 50%

## CCNc1ncc2c(n1)N1CCC[C@H]1CN(c1cncc(-c3nnc(C)o3)c1)C2=O [Compound 43, (S)-9-Ethylamino-5-[5-(5-methyl-1,3,4-oxadiazol-2-yl)pyridin-3-yl]-1,2,3,3a,4,5-hexahydro-5,8,10,10b-tetraazabenzo[e]azulen-6-one]
  inhibitory activity ([3H]-Gabapentin binding inhibition): ≥ 50%

## CCNc1ncc2c(n1)N1CCC[C@H]1CN(c1cncc(-c3nn(C)c(=O)o3)c1)C2=O [Compound 44, (S)-5-[5-(9-Ethylamino-6-oxo-2,3,3a,4-tetrahydro-1H,6H-5,8,10,10b-tetraazabenzo[e]azulen-5-yl)pyridin-3-yl]-3-methyl-1,3,4-oxadiazol-2(3H)-one]
  inhibitory activity ([3H]-Gabapentin binding inhibition): ≥ 50%

## CCNc1ncc2c(n1)N1CCC[C@H]1CN(c1cccc(-c3nnc(Cc4ccccc4)o3)c1)C2=O [Compound 45, (S)-5-[3-(5-Benzyl-1,3,4-oxadiazol-2-yl)phenyl]-9-ethylamino-1,2,3,3a,4,5-hexahydro-5,8,10,10b-tetraazabenzo[e]azulen-6-one]
  inhibitory activity ([3H]-Gabapentin binding inhibition): ≥ 50%

## CCNc1ncc2c(n1)N1CCC[C@H]1CN(c1cccc(-c3nnc(-c4ccccc4)o3)c1)C2=O [Compound 46, (S)-9-Ethylamino-5-[3-(5-phenyl-1,3,4-oxadiazol-2-yl)phenyl]-1,2,3,3a,4,5-hexahydro-5,8,10,10b-tetraazabenzo[e]azulen-6-one]
  inhibitory activity ([3H]-Gabapentin binding inhibition): ≥ 50%

## CCNc1ncc2c(n1)N1CCC[C@H]1CN(c1cccc(-c3nnc(C(C)C)o3)c1)C2=O [Compound 47, (S)-9-Ethylamino-5-[3-(5-isopropyl-1,3,4-oxadiazol-2-yl)phenyl]-1,2,3,3a,4,5-hexahydro-5,8,10,10b-tetraazabenzo[e]azulen-6-one]
  inhibitory activity ([3H]-Gabapentin binding inhibition): ≥ 50%

## CCNc1ncc2c(n1)N1CCC[C@H]1CN(c1cccc(-c3nnc(CO)o3)c1)C2=O [Compound 48, (S)-9-Ethylamino-5-[3-(5-hydroxymethyl-1,3,4-oxadiazol-2-yl)phenyl]-1,2,3,3a,4,5-hexahydro-5,8,10,10b-tetraazabenzo[e]azulen-6-one]
  inhibitory activity ([3H]-Gabapentin binding inhibition): ≥ 50%

## CCNc1ncc2c(n1)N1CCC[C@H]1CN(c1cccc(-c3nnc(CC)o3)c1)C2=O [Compound 49, (S)-5-[3-(5-Ethyl-1,3,4-oxadiazol-2-yl)phenyl]-9-ethyl-amino-1,2,3,3a,4,5-hexahydro-5,8,10,10b-tetraazabenzo[e]azulen-6-one]
  inhibitory activity ([3H]-Gabapentin binding inhibition): ≥ 50%

## CCNc1ncc2c(n1)N1CCC[C@H]1CN(c1cccc(-c3nnc(-c4cccc(C#N)c4)o3)c1)C2=O [Compound 50, (S)-5-{3-[5-(3-Cyanophenyl)-1,3,4-oxadiazol-2-yl]phenyl}-9-ethylamino-1,2,3,3a,4,5-hexahydro-5,8,10,10b-tetraazabenzo[e]azulen-6-one]
  inhibitory activity ([3H]-Gabapentin binding inhibition): ≥ 50%

## CCNc1ncc2c(n1)N1CCC[C@H]1CN(c1cccc(-c3nnc(COC)o3)c1)C2=O [Compound 51, (S)-9-Ethylamino-5-[3-(5-methoxymethyl-1,3,4-oxadiazol-2-yl)phenyl]-1,2,3,3a,4,5-hexahydro-5,8,10,10b-tetraazabenzo[e]azulen-6-one]
  inhibitory activity ([3H]-Gabapentin binding inhibition): ≥ 50%
